Source: article PMC10858260
The exact form of at least one protein or probe is not confirmed. Negatives hold for the conditions tested. For some assays here: At least one verdict rests on a figure or table, not on a statement of the authors.

What was measured:
Assay in all cases: BLI
[1] = test system: PsdR-P (phosphorylated with ammonium phosphoramidate) (Lacticaseibacillus paracasei BL23); details: ammonium phosphoramidate, Mg2+; BLI (BLITz, streptavidin sensors, DNA immobilized): 50 mM Tris-HCl pH 7.4, 150 mM NaCl, 0.1% Tween 20; recombinant protein; protein details: N-terminal His6 (pNIC28-Bsa4); label: biotin on reverse primer
[2] = test system: ApsR-P (phosphorylated with acetyl-phosphate) (Lacticaseibacillus paracasei BL23); details: acetyl-phosphate, Mg2+; BLI (BLITz, streptavidin sensors, DNA immobilized): 50 mM Tris-HCl pH 7.4, 150 mM NaCl, 0.1% Tween 20; recombinant protein; protein details: N-terminal His6 (pNIC28-Bsa4); label: biotin on reverse primer
[3] = test system: ApsR treated with ammonium phosphoramidate (phosphorylated) (Lacticaseibacillus paracasei BL23); details: ammonium phosphoramidate, Mg2+; BLI (BLITz, streptavidin sensors, DNA immobilized): 50 mM Tris-HCl pH 7.4, 150 mM NaCl, 0.1% Tween 20; recombinant protein; protein details: N-terminal His6 (pNIC28-Bsa4); label: biotin on reverse primer
[4] = test system: PsdR unphosphorylated (Lacticaseibacillus paracasei BL23); details: unphosphorylated; BLI (BLITz, streptavidin sensors, DNA immobilized): 50 mM Tris-HCl pH 7.4, 150 mM NaCl, 0.1% Tween 20; recombinant protein; protein details: N-terminal His6 (pNIC28-Bsa4); label: biotin on reverse primer
[5] = test system: ApsR unphosphorylated (Lacticaseibacillus paracasei BL23); details: unphosphorylated; BLI (BLITz, streptavidin sensors, DNA immobilized): 50 mM Tris-HCl pH 7.4, 150 mM NaCl, 0.1% Tween 20; recombinant protein; protein details: N-terminal His6 (pNIC28-Bsa4); label: biotin on reverse primer

Row | Sequence | binding result [1] | binding result [2] | binding result [3] | binding result [4] | binding result [5]
1 | AAACTGCCGATGCTGAGATGATGATGGAAAACTCACTGTTTGGTTTACCTGAAGGGGCAGCCATGGTTACCGATGGCACAACCAATACTTTCCAGGCAGC (double strand) [Flta] | no binding | no binding | – | – | –
2 | CAATCATCTCGCAAACTTACATCACCTTACAAAAAGGTCAGAAAGGGTGCGAGGGGCTTGTAGATTTCCTATAATGAATAGGAATATAGACACGGAGGAC (double strand) [PmprF] | – | – | no binding | no binding | no binding
3 | GGTAAAGAAAGACTAAAGCAGCTTACAAAGCCGTAAGTTACAAACAACCATCCGTTAGGCCATTATCAGGAAAAAGGCAGCCTAACCCGCTATCATAAAG (double strand) [PderA] | – | – | no binding | no binding | no binding
4 | GTAAGCTACCTTACCAGCTTGTAAGCAACTACGAATCACTGTAAGTAGGCATGGGGCATCATCCCCGCTAAGCTAATAAATGAAAGGGGACGATCACATG (double strand) [PpsdA] | – | – | no binding | no binding | no binding
5 | TCACGCTTCTCATATTACGAAACTGTTAGCTCATTGTTACGCAATTCGTTGGCGTCATTTTTTCTGAAAACCTATAATGAATGTGTAAATAAAAACGTGG (double strand) [Pdlt] | – | – | no binding | no binding | no binding
